No constants are given. Whether binding was seen depends on the method and setting. In cells and extracts the contact can be indirect. These calls come from enrichment with a bait or labelling near it, and not all partners need be listed. Where a sequence is shown, tags or fusion partners need not be part of it.
Molecular target: Nam8-TAP (TAP-tagged Nam8p) (S. cerevisiae) (UniProt Q00539)
Experiment: affinity purification with mass spectrometry; tandem affinity purification of TAP-tagged Swt21p or Nam8p from whole-cell yeast extracts: IgG Sepharose, PreScission elution, calmodulin resin, 300 mM NaCl buffers; eluates identified by mass spectrometry; Nam8-TAP also in the absence of Swt21p

Protein sequences, listed by entry. Tags and fused reporters are not part of them.
UniProt Q00539: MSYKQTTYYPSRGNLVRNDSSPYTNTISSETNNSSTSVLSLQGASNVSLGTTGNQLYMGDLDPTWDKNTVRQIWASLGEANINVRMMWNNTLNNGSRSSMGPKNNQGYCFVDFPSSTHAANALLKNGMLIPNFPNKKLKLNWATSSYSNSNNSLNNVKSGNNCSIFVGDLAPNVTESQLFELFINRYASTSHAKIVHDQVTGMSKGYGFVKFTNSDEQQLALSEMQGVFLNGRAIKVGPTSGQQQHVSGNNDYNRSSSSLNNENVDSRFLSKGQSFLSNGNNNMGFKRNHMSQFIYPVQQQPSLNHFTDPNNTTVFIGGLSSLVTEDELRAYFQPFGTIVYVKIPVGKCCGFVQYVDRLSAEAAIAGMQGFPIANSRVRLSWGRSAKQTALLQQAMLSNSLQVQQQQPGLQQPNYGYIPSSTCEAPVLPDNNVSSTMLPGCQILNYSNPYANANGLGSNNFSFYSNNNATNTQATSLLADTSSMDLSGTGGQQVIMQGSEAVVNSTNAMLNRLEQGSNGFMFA
UniProt P53207: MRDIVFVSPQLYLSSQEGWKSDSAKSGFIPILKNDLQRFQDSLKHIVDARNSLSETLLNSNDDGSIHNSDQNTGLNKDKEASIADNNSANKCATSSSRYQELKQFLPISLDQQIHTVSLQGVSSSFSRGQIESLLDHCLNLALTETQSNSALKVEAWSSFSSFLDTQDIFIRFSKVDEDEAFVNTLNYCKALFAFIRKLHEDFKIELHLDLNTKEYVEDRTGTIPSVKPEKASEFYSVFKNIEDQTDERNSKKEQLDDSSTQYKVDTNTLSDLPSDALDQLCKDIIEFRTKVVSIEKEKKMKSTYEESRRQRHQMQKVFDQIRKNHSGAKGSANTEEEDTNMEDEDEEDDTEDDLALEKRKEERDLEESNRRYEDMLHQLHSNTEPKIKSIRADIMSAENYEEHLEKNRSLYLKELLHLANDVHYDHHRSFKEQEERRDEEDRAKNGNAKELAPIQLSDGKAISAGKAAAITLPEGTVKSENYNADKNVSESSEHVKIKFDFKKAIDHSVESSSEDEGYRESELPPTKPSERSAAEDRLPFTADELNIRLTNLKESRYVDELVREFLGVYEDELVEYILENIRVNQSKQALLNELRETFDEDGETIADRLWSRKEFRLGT
UniProt Q07508: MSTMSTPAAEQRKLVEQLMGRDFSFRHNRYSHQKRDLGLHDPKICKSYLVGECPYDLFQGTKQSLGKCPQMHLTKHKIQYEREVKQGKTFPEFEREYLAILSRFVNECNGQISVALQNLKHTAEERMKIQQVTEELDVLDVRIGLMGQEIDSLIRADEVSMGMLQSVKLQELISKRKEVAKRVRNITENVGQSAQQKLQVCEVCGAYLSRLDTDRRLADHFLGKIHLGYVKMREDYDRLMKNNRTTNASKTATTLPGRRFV

Molecule | binding
Snu71p (from UniProt P53207 1-620) | binds
Luc7p (from UniProt Q07508 1-261) | binds
SmBp (protein, UniProt P40018 1-196) MSKIQVAHSSRLANLIDYKLRVLTQDGRVYIGQLMAFDKHMNLVLNECIEERVPKTQLDKLRPRKDSKDGTTLNIKVEKRVLGLTILRGEQILSTVVEDKPLLSKKERLVRDKKEKKQAQKQTKLRKEKEKKPGKIAKPNTANAKHTSSNSREIAQPSSSRYNGGNDNIGANRSRFNNEAPPQTRKFQPPPGFKRK | binds
